Measurements reported in PubChem BioAssay AID652243 (Drosophila RNAi Screening Center, 2013).

- Screen: 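Fly regulators of androgen-dependent reporter output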 (primary screen)
- Cells: Drosophila S2R+ cells
- Reagent: long dsRNA against Drosophila genes
- Timing: 72 h (48 h, then 24 h hormone)
- Conditions: synthetic androgen R1881 at 10 nM for 24 h
- Read-out: 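Firefly light from an androgen-responsive reporter and Renilla control light per well, raw and unnormalised, for each of two replicates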
- Direction: firefly reporter light: higher = more light from androgen-responsive reporter; Renilla control light: higher = more constitutive control signal (cell number, transfection)
- Hit rule: 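Across duplicate plates, a knock-down whose log firefly/Renilla ratio shifted a set fold down or up from the GFP/LacZ control mean was a hit; the downward cut appears as both 1.5 and 3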
- Meaning of the calls: active = hit: reporter lowered or raised; inactive = no hit
The screen tested about 24,000 reagents; below is an unselected part of those with a known target gene and a result. Of all reagents, 246 (1%) got an active call. 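Plates not normalised; calls are printed but the firefly/Renilla ratio behind them is not deposited; fold cut for lowering reported inconsistently.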 Raw values vary from plate to plate and are shown uncorrected. A number with no mark means an inactive call. Names joined by + are all predicted targets of the reagent. Not given: the amount of reagent.

gene | dsRNA | firefly reporter light, replicate 1 | firefly reporter light, replicate 2 | Renilla control light, replicate 1 | Renilla control light, replicate 2
CG1231 | DRSC08267 | 65565 | 69585 | 6.79e5 | 8.70e5
CG1231 | DRSC27231 | 4.47e5 | 3.13e5 | 5.51e5 | 3.66e5
Jon74E | DRSC10617 | 2.10e5 | 1.60e5 | 1.23e6 | 9.99e5
Jon74E | DRSC23947 | 4.91e5 | 3.81e5 | 5.41e5 | 3.96e5
CG33467 | DRSC05525 | 1.20e5 | 1.83e5 | 5.69e5 | 7.50e5
CG33467 | DRSC22651 | 6.18e5 | 6.36e5 | 1.08e6 | 1.28e6
Urod | DRSC07569 | 4.12e5 | 2.83e5 | 2.21e6 | 1.87e6
Urod | DRSC30007 | 4.90e5 | 4.36e5 | 1.07e6 | 8.01e5
CG13177 | DRSC06303 | 3.07e5 | 3.22e5 | 1.95e6 | 2.36e6
Polr2B | DRSC16831 | 53361 | 29964 | 1.36e5 | 1.66e5
CAH1 + Adat1 | DRSC02009 | 1.50e6 | 8.34e5 | 2.11e6 | 1.44e6
Ntf-2r | DRSC02019 | 2.42e5 | 1.91e5 | 1.04e6 | 1.06e6
CG3309 | DRSC18301 | 88706 | 1.13e5 | 1.74e6 | 1.67e6
CG3309 | DRSC26197 | 3.42e5 | 2.88e5 | 3.28e5 | 3.54e5
CG18641 | DRSC00527 | 96426 | 1.15e5 | 7.45e5 | 5.48e5
Blimp-1 | DRSC10496 | 2.44e5 | 1.59e5 | 3.38e6 | 2.25e6
Blimp-1 | DRSC24305 | 5.62e5 | 7.78e5 | 8.06e5 | 1.07e6
l(2)05287 | DRSC02151 | 1.09e6 | 9.36e5 | 3.15e6 | 3.16e6
l(2)05287 | DRSC02152 | 1.12e5 | 1.28e5 | 1.44e6 | 1.30e6
l(2)05287 | DRSC26660 | 2.71e5 | 1.65e5 | 6.74e5 | 5.88e5
CheA84a | DRSC37918 | 8.11e5 | 9.15e5 | 1.46e6 | 1.42e6
Cnep1r1 | DRSC38789 | 8.33e5 | 9.72e5 | 1.68e6 | 1.79e6
CG10919 | DRSC14283 | 93239 | 1.12e5 | 2.35e6 | 2.17e6
CG32811 | DRSC22649 | 7.64e5 | 8.43e5 | 1.53e6 | 1.86e6
